Source: article PMC11792055
Results are given in words; binding and its absence hold for the method and conditions named. In cells and extracts the contact can be indirect. Some entries that bind do so weakly or less than the wild type. Blank lines part the entries; values can stand above or below the molecule they belong to.

Protein sequences, listed by entry. Tags and fused reporters are not part of them. Lines headed by an entry give the natural chain unless they say otherwise; changes in a name come on top. Chains listed by the source or under a name are the forms on record and can include a tag or linker. Residues count along the entry.
UniProt P07948: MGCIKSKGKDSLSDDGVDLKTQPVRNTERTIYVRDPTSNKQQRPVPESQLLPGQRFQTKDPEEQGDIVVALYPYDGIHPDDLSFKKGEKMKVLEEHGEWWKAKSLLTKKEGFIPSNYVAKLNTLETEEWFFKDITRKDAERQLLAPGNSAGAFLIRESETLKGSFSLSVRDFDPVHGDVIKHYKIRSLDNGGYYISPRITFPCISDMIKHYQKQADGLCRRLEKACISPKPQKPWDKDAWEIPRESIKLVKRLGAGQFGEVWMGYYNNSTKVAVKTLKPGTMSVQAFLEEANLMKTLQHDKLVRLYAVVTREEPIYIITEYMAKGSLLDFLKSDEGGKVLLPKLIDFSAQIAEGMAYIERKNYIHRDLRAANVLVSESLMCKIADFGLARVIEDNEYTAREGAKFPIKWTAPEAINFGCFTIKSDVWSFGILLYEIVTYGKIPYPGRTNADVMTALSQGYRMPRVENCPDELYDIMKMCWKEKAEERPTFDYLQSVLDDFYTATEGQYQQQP
Lyn SH3 truncated form with a Flag tag and a GFP tag: residues 63-123 of P07948
Lyn SH2 truncated form with a Flag tag and a GFP tag: residues 129-226 of P07948
UniProt Q9Y265: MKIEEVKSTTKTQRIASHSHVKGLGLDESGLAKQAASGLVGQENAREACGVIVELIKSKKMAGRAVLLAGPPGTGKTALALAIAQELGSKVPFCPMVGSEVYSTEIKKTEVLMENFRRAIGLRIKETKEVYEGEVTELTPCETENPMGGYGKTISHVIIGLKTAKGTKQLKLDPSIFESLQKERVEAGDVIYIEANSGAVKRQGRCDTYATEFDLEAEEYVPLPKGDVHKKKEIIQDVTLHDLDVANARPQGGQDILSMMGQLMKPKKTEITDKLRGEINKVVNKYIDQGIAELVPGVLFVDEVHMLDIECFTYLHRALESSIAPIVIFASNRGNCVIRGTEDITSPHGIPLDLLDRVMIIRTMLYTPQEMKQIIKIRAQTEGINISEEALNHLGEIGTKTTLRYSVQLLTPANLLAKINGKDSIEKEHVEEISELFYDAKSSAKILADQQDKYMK
UniProt Q07065: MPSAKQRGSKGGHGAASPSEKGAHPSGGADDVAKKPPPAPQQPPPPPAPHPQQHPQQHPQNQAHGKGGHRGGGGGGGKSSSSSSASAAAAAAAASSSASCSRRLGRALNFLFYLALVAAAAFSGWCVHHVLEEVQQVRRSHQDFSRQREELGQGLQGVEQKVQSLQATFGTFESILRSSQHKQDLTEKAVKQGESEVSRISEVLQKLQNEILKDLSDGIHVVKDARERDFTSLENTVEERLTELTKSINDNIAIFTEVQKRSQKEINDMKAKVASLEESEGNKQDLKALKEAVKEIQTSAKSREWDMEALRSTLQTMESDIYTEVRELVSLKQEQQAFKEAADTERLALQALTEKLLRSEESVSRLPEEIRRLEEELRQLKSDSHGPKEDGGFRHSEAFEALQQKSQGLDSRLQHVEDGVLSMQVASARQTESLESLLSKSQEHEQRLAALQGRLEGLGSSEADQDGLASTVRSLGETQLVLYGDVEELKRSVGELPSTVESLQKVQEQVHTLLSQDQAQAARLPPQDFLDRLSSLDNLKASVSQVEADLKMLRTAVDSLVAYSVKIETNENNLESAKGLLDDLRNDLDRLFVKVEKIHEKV

Experiments:
GST-Lyn = GST-Lyn (UniProt P07948); test: pull-down; GST pull-down kit (Thermo Fisher Scientific); GST-Lyn from E. coli BL21 attached to a glutathione column; RUVBL1 overexpressed in 293T cells; eluate analysed by Western blotting; only the target purified
[1] = target: Lyn SH2 truncated form with a Flag tag and a GFP tag (UniProt P07948); test: co-IP; 293T cells cotransfected with Flag/GFP-tagged Lyn truncated forms and HA/RFP-tagged RUVBL1
[2] = target: Lyn SH3 truncated form with a Flag tag and a GFP tag (UniProt P07948); test: as above
[3] = target: Lck/yes-related protein tyrosine kinase (Lyn) (human (endogenous in colon cancer cells)) (UniProt P07948); test: co-IP; Lyn antibody used to precipitate from colon cancer cells; partners detected by blot
[4] = target: Lck/yes-related protein tyrosine kinase (Lyn) (human (endogenous in colon cancer cells)) (UniProt P07948); test: proximity ligation; NaveniFlex Cell MR Kit (Navinci); fixed colon cancer cells, primary antibodies to Lyn and RUVBL1, fluorescence microscopy
[5] = target: T1, β-catenin (human (endogenous in colon cancer cells)), P35222; test: co-IP; IP in colon cancer cells; conditions: remark: other sources report otherwise
T1 chain: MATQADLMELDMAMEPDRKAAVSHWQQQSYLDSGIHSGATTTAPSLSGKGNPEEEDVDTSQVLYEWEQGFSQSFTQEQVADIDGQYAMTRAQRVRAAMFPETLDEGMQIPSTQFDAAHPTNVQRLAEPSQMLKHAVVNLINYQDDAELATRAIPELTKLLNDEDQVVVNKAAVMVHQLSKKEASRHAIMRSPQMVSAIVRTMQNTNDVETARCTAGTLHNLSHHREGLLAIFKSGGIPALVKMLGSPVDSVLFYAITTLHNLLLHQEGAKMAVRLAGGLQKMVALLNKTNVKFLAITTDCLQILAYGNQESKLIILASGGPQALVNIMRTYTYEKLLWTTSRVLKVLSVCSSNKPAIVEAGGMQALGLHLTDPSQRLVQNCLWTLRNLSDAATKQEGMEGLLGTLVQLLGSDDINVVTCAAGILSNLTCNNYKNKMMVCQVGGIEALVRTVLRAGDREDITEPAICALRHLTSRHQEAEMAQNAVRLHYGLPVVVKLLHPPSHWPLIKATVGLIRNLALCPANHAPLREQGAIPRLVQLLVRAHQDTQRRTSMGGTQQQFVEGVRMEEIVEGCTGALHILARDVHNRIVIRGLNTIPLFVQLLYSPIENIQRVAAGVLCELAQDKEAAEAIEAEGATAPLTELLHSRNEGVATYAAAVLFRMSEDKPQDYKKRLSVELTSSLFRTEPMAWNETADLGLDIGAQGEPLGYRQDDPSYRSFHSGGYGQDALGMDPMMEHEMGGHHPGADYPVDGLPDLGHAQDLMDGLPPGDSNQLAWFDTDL

Molecule: RUVBL1 tagged with an HA tag and an RFP tag (overexpression plasmid) (from UniProt Q9Y265 1-456)
binding (GST-Lyn): binds | binding [1]: binds | binding [2]: binds

Molecule: cytoskeleton-associated protein 4 (CKAP4) (from UniProt Q07065 1-602)
binding [3]: binds

B2: tribbles homolog 3 (TRIB3), Q96RU7 1-358 (protein)
chain: MRATPLAAPAGSLSRKKRLELDDNLDTERPVQKRARSGPQPRLPPCLLPLSPPTAPDRATAVATASRLGPYVLLEPEEGGRAYQALHCPTGTEYTCKVYPVQEALAVLEPYARLPPHKHVARPTEVLAGTQLLYAFFTRTHGDMHSLVRSRHRIPEPEAAVLFRQMATALAHCHQHGLVLRDLKLCRFVFADRERKKLVLENLEDSCVLTGPDDSLWDKHACPAYVGPEILSSRASYSGKAADVWSLGVALFTMLAGHYPFQDSEPVLLFGKIRRGAYALPAGLSAPARCLVRCLLRREPAERLTATGILLHPWLRQDPMPLAPTRSHLWEAAQVVPDGLGLDEAREEEGDREVVLYG
binding [5]: binds

Further lines, results first:

binding [4]: binds | binding [3]: binds
Molecule: ruvB like AAA ATPase 1 (RUVBL1) (from UniProt Q9Y265 1-456)

binding [3]: binds
B1: tight junction protein 2 (TJP2) (protein, UniProt Q9UDY2 1-1190)
chain: MPVRGDRGFPPRRELSGWLRAPGMEELIWEQYTVTLQKDSKRGFGIAVSGGRDNPHFENGETSIVISDVLPGGPADGLLQENDRVVMVNGTPMEDVLHSFAVQQLRKSGKVAAIVVKRPRKVQVAALQASPPLDQDDRAFEVMDEFDGRSFRSGYSERSRLNSHGGRSRSWEDSPERGRPHERARSRERDLSRDRSRGRSLERGLDQDHARTRDRSRGRSLERGLDHDFGPSRDRDRDRSRGRSIDQDYERAYHRAYDPDYERAYSPEYRRGARHDARSRGPRSRSREHPHSRSPSPEPRGRPGPIGVLLMKSRANEEYGLRLGSQIFVKEMTRTGLATKDGNLHEGDIILKINGTVTENMSLTDARKLIEKSRGKLQLVVLRDSQQTLINIPSLNDSDSEIEDISEIESNRSFSPEERRHQYSDYDYHSSSEKLKERPSSREDTPSRLSRMGATPTPFKSTGDIAGTVVPETNKEPRYQEDPPAPQPKAAPRTFLRPSPEDEAIYGPNTKMVRFKKGDSVGLRLAGGNDVGIFVAGIQEGTSAEQEGLQEGDQILKVNTQDFRGLVREDAVLYLLEIPKGEMVTILAQSRADVYRDILACGRGDSFFIRSHFECEKETPQSLAFTRGEVFRVVDTLYDGKLGNWLAVRIGNELEKGLIPNKSRAEQMASVQNAQRDNAGDRADFWRMRGQRSGVKKNLRKSREDLTAVVSVSTKFPAYERVLLREAGFKRPVVLFGPIADIAMEKLANELPDWFQTAKTEPKDAGSEKSTGVVRLNTVRQIIEQDKHALLDVTPKAVDLLNYTQWFPIVIFFNPDSRQGVKTMRQRLNPTSNKSSRKLFDQANKLKKTCAHLFTATINLNSANDSWFGSLKDTIQHQQGEAVWVSEGKMEGMDDDPEDRMSYLTAMGADYLSCDSRLISDFEDTDGEGGAYTDNELDEPAEEPLVSSITRSSEPVQHEESIRKPSPEPRAQMRRAASSDQLRDNSPPPAFKPEPPKAKTQNKEESYDFSKSYEYKSNPSAVAGNETPGASTKGYPPPVAAKPTFGRSILKPSTPIPPQEGEEVGESSEEQDNAPKSVLGKVKIFEKMDHKARLQRMQELQEAQNARIEIAQKHPDIYAVPIKTHKPDPGTPQHTSSRPPEPQKAPSRPYQDTRGSYGSDAEEEEYRQQLSEHSKRGYYGQSARYRDTEL
